Assay results: patent publication US20030125296
Construct, isoform or probe ends are uncertain for at least one entry. For part of these data: Results from cells or extracts need not show a direct contact.

Amino acid sequences for entries named in this document (tags omitted). Chains listed by the source or under a name are the forms on record and can include a tag or linker.
UniProt Q5ZQU0, other isoform, or with tags, fused parts or gaps: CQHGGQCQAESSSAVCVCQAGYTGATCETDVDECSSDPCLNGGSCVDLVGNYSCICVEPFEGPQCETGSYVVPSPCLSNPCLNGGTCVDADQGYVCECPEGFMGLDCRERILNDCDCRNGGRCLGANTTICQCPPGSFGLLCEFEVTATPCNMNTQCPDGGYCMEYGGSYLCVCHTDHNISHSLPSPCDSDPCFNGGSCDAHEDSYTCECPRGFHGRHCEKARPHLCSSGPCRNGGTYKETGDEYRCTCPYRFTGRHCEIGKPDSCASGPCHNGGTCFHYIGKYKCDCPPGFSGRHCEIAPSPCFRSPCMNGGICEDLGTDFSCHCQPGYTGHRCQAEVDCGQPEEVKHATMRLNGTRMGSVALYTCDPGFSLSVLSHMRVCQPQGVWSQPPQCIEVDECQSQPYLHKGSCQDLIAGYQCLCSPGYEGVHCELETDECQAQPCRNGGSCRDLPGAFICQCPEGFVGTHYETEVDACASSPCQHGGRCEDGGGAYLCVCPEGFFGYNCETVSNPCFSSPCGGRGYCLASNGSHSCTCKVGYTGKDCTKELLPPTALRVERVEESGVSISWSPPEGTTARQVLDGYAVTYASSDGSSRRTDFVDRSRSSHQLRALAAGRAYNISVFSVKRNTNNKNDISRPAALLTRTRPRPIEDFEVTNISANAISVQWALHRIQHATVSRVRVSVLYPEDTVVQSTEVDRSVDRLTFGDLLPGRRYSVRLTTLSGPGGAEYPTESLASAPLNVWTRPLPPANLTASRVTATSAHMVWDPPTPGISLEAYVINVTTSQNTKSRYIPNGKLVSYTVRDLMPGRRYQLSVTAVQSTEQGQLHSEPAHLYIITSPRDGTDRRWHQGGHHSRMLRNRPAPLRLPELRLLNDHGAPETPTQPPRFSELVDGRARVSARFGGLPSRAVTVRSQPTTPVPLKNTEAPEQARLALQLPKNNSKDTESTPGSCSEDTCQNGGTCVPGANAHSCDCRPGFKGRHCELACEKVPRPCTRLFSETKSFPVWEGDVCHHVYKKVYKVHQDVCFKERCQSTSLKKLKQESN

Legend:
HBP1 [1] = assay: one hybrid; details: isolated from yeast one-hybrid screen with 3 copies of IRE; protein in cells; label: 32P
[2] = molecular target: IRDBP-1 in hepatic nuclear extract (Rattus norvegicus) (UniProt Q5ZQU0); assay: EMSA; details: shifted band reactive with anti-IRDBP-1 cAb, protein in an extract
Sp1 = assay: EMSA; details: nuclear extract, band recognised by anti-Sp1; protein in an extract
HBP1 [3] = assay: activity in cells; details: CHO, IGFBP-1 IRE luciferase activated by HBP1; reduced by IRDBP-1 cotransfection; protein in cells; only the site is given

Sequence | binding result (HBP1 [1]) | binding result [2] | binding result (Sp1) | activity on this sequence (HBP1 [3])
AATTCAAGGGTATCCAGGAAAGTCTCC (double strand) [IGFBP-3 IRE -1150/-1117] | binds | – | – | –
AATTCAAGGGTATCCAGGAAAGTCTCCTTCAAG (double strand) [IGFBP-3 IRE oligo (Example 7)] | – | binds | – | –
GCCTCATTATTCCTGCCCACCAAT (double strand) [IGF-1 IRE] | – | binds | binds | –
GTTTGTTTTGCTAGT (double strand) [IGFBP-1 IRE] | – | binds | – | active
